PubChem BioAssay AID1508597 – Cure First, 2020

Test: 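Survival screen with siRNA in ovarian cancer cells derived from patients, with or without rucaparib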 (primary screen)
Cells: human ovarian carcinoma lines grown from tumours: OCI-P5x (papillary serous) and OCI-C5x (clear cell)
Reagents: siRNA pool against human genes, 1.25 pmol siRNA per well
Timing: 72 h or 96 h, depending on the cell culture
Treatment: rucaparib 20 µM (about IC30) or vehicle, present until read-out
Rucaparib or vehicle: Vehicle
Cell line: OCI-P5x (serous)
Measured: 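Luminescent ATP-based viability assay read 72 or 96 h after transfection, depending on culture, given as normalised percent viability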
Reading the numbers: viability, normalised: higher = more viable cells remaining
Call rule: 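a well counts as a hit if its normalised viability is under 80 percent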
Calls: active = viability under 80%; inactive = viability 80% or more
Shown is an unselected part of the about 2,100 reagents, in one setting of the screen. 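Calls flag viability under 80% in either arm, not effects specific to rucaparib; the reference for percent is not stated.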 Some reagents were tested in more than one well and are listed for each. Reagent sequences are not shown. The record does not give: the 100% reference.

gene | technical replicate | viability, normalised (%) | outcome
TTF1 | 1 | 50.1 | active
TTF1 | 2 | 49.5 | active
TTF1 | 3 | 47.5 | active
DHX35 | 1 | 52.5 | active
DHX35 | 2 | 65.2 | active
DHX35 | 3 | 54.5 | active
USP28 | 1 | 63.3 | active
USP28 | 2 | 78.6 | active
USP28 | 3 | 80.3 | inactive
PRKAR1B | 1 | 96.4 | inactive
PRKAR1B | 2 | 115 | inactive
PRKAR1B | 3 | 112 | inactive
MTA3 | 1 | 75.6 | active
MTA3 | 2 | 65.7 | active
MTA3 | 3 | 69.9 | active
H2AC4 | 1 | 81.9 | inactive
H2AC4 | 2 | 87.1 | inactive
H2AC4 | 3 | 87.5 | inactive
DDX10 | 1 | 45.2 | active
DDX10 | 2 | 63.3 | active
DDX10 | 3 | 59.5 | active
MAPK10 | 1 | 74 | active
MAPK10 | 2 | 84.8 | inactive
MAPK10 | 3 | 89.5 | inactive
DMAP1 | 1 | 63 | active
DMAP1 | 2 | 64.3 | active
DMAP1 | 3 | 78.8 | active
SUPT5H | 1 | 38.1 | active
SUPT5H | 2 | 48.4 | active
SUPT5H | 3 | 41.7 | active
EPB41L5 | 1 | 59.3 | active
EPB41L5 | 2 | 68.4 | active
EPB41L5 | 3 | 71.9 | active
PHKA1 | 1 | 91.7 | inactive
PHKA1 | 2 | 93.3 | inactive
PHKA1 | 3 | 109 | inactive
PDP1 | 1 | 63.3 | active
PDP1 | 2 | 75 | active
PDP1 | 3 | 88.6 | inactive
CDK8 | 1 | 95.2 | inactive
CDK8 | 2 | 84.2 | inactive
CDK8 | 3 | 82 | inactive
HDAC9 | 1 | 52 | active
HDAC9 | 2 | 67.4 | active
HDAC9 | 3 | 52.8 | active
TRDMT1 | 1 | 74.2 | active
TRDMT1 | 2 | 86.2 | inactive
TRDMT1 | 3 | 76.3 | active

Entries listed so far whose gene name starts with T or t:
gene | technical replicate | viability, normalised (%) | outcome
TTF1 | 1 | 50.1 | active
TTF1 | 2 | 49.5 | active
TTF1 | 3 | 47.5 | active
TRDMT1 | 1 | 74.2 | active
TRDMT1 | 2 | 86.2 | inactive
TRDMT1 | 3 | 76.3 | active

Next records follow:
gene | technical replicate | viability, normalised (%) | outcome
EPHA10 | 1 | 88.7 | inactive
EPHA10 | 2 | 75.1 | active
EPHA10 | 3 | 95.4 | inactive
EGFR | 1 | 94.2 | inactive
EGFR | 2 | 89.1 | inactive
EGFR | 3 | 90.4 | inactive
ABL1 | 1 | 83.7 | inactive
ABL1 | 1 | 72.2 | active
ABL1 | 2 | 60.8 | active
ABL1 | 2 | 85.8 | inactive
ABL1 | 3 | 69.2 | active
ABL1 | 3 | 65.5 | active
SETD7 | 1 | 43 | active
SETD7 | 2 | 63.7 | active
SETD7 | 3 | 84 | inactive
TAF5 | 1 | 62.2 | active
TAF5 | 2 | 69.3 | active
TAF5 | 3 | 68.8 | active
PTK2B | 1 | 79.2 | active
PTK2B | 2 | 71.9 | active
PTK2B | 3 | 64.4 | active
TBP | 1 | 87.8 | inactive
TBP | 2 | 90.5 | inactive
TBP | 3 | 54.6 | active
PRDM15 | 1 | 73.5 | active
PRDM15 | 2 | 76 | active
PRDM15 | 3 | 93.1 | inactive
